Test results: PubChem BioAssay AID504327 (National Center for Advancing Translational Sciences (NCATS), 2011)
Hit rate of the full screen: of about 390,000 compounds, about 820 (0.21%) were called active. Inconclusive results, whose numbers are uncertain, are shown with a selection of clear calls. The call rests on the fitted dose curve; in most records, active means well fitted inhibition curve with a large enough effect; inconclusive means small, poorly fitted or top-dose-only effect, or another doubt; inactive means no such curve, though single readings can be large or run the other way. Where the call is inconclusive, the potency comes from a doubtful curve fit.

By UniProt entry, the sequences of proteins in these tests, tags left out.
UniProt Q92830, whole entry, looked up: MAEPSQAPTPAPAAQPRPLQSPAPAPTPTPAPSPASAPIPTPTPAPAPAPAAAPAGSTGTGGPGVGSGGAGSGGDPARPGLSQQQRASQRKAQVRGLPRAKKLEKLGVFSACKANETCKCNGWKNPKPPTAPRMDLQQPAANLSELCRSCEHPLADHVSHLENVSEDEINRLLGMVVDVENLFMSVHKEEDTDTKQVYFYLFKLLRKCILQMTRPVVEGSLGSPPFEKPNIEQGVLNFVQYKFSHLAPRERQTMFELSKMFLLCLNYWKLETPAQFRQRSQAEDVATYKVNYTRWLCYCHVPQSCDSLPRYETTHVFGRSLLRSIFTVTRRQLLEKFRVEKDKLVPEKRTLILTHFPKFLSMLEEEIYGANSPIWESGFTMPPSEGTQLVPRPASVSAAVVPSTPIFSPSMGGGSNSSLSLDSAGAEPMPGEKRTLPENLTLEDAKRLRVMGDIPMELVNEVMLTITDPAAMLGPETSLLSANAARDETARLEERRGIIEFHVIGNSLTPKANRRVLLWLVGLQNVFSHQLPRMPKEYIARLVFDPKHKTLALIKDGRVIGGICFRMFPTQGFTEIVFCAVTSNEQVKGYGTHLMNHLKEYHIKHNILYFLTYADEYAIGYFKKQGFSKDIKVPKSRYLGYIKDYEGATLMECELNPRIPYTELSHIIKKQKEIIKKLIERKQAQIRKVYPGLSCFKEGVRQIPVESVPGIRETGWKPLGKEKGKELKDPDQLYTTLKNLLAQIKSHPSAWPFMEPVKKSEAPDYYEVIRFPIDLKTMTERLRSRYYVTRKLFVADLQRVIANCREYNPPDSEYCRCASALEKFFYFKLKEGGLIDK

Each compound was assayed against Histone acetyltransferase KAT2A (Homo sapiens) (UniProt Q92830) (assay: qHTS Assay for Inhibitors of GCN5L2). Conditions: GCN5L2 HAT assay, ThioGlo1 CoA-SH fluorescence; activity change, negative = inhibition: at 58.9 µM (top of the series) unless noted.
Summary of the method: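 ThioGlo1-coupled HAT assay: 20nM GCN5L2, 70uM acetyl-CoA, 75uM H3(1-25) peptide, pH 7.5. Fluorescence read at 340/540nm at start and after 20 min at room temperature.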
On the % scale 0 is the no-effect control and ±100 the full control effect; potency means the concentration at half of the fitted maximal effect.

**Q.** How did the Potency turn out when O=C(Cn1cnc2onc(-c3ccc(Cl)cc3)c2c1=O)Nc1ccc(F)cc1 was run?
**A.** inactive

**Q.** For N=C1/C(=C/c2cccs2)C(=O)N=C2SN=C(SCc3ccccc3)N12, which Potency is on record?
**A.** inconclusive: 31.6 µM [inhibitor, single point]

**Q.** CC(C)(C)C(=O)Nc1cc(S(=O)(=O)N2CCCCC2)ccc1N1CCCCC1 was tested. Which Potency did it give?
**A.** inactive

**Q.** For CN(C)/C=C/C1=C([N+](=O)[O-])C(c2cccc([N+](=O)[O-])c2)NC(=O)N1 (centres undefined), which Potency is on record?
**A.** inactive

**Q.** For COc1cccc(C(=O)/C=C/Nc2ccc(S(=O)(=O)Nc3cccc(C(C)=O)c3)cc2)c1, which Potency is on record?
**A.** inactive

**Q.** For O=C(c1cc2cc(Cl)ccc2[nH]1)N1CCN(Cc2ccc3c(c2)OCO3)CC1, which Potency is on record?
**A.** inactive

**Q.** For CCSc1nc2cc(S(=O)(=O)N3CCOCC3)ccc2o1, which Potency is on record?
**A.** inconclusive: 28.2 µM [inhibitor, partial curve]

**Q.** Cc1ccc(S(=O)(=O)N2CCC(=O)N([C@H](COCc3cccc(C)c3)Cc3ccccc3)CC2)cc1 was tested. Which Potency did it give?
**A.** inconclusive: 39.8 µM [inhibitor, single point]

**Q.** How did the Potency turn out when COc1ccc(-c2cc(C(F)(F)F)n3ncc(C(=O)NCC4CCCO4)c3n2)cc1OC (centres undefined) was run?
**A.** inconclusive: 12.6 µM [inhibitor, single point]

**Q.** With O=C1c2ccccc2C(=O)N1CCSc1nc2ccccc2c(=O)n1CCCN1CCOCC1 as the compound, how does the Potency read?
**A.** inconclusive: 0.562 µM [inhibitor, single point]

**Q.** C=C1C(=O)OC2CC1C(OC(C)=O)CC(C)=CCCC(C)=CCC[C@@]2(C)O (some centres undefined) was tested. Which Potency did it give?
**A.** inactive

**Q.** How did the Potency turn out when O=C(O)C1=CC[C@@H](c2ccc(Cl)cc2)N(S(=O)(=O)c2ccc(Cl)cc2)[C@H]1c1cccc(Cl)c1 was run?
**A.** inconclusive: 31.6 µM [inhibitor, single point]

**Q.** With O=C(O)c1cc(N=Nc2c(O)ccc3ccccc23)cc(C(=O)O)c1 as the compound, how does the Potency read?
**A.** inconclusive: 39.8 µM [inhibitor, single point]

**Q.** How did the Potency turn out when O=C(/C=C\c1ccco1)Nc1cc([N+](=O)[O-])ccc1F was run?
**A.** inactive

**Q.** How did the Potency turn out when O=C(NCCCN1CCCC1=O)c1cccc(S(=O)(=O)N2CCN(c3ccc(F)cc3)CC2)c1 was run?
**A.** inconclusive: 8.91 µM [inhibitor, single point]

**Q.** Which Potency does the source give for COc1cccc2cc(C(=O)NCCN3CCOCC3)oc12 here?
**A.** inconclusive: 1.26 µM [inhibitor, full curve]

**Q.** With Cc1c2c(=O)n(-c3nc4ccccc4s3)nc-2cc(O)n1Cc1ccccc1 as the compound, how does the Potency read?
**A.** inconclusive: 39.8 µM [inhibitor, single point]

**Q.** Which Potency does the source give for O=C(NCCCN1CCCC1=O)c1ccc2c(c1)NC(=O)C(N1CCOCC1)S2 (centres undefined) here?
**A.** inactive

**Q.** For CC(C)c1ccc(NC(=O)c2ccc3c(O)c(S(=O)(=O)c4ccccc4)c(=O)[nH]c3c2)cc1, which Potency is on record?
**A.** inconclusive: 31.6 µM [inhibitor, single point]

**Q.** With CCc1ccc(N2CSC3=C(C#N)C(c4cccs4)CC(=O)N3C2)cc1 (centres undefined) as the compound, how does the Potency read?
**A.** inconclusive: 22.4 µM [inhibitor, single point]

**Q.** With Cc1ccc(S(=O)(=O)N[C@H](C(=O)Oc2ccc3c(C(F)(F)F)cc(=O)oc3c2)c2ccccc2)cc1 as the compound, how does the Potency read?
**A.** inconclusive: 31.6 µM [inhibitor, single point]

**Q.** For O=C(CCC1N=C2c3ccccc3N=C(SCC(=O)Nc3ccc(F)cc3)N2C1=O)NCc1cccs1 (centres undefined), which Potency is on record?
**A.** inactive

**Q.** CC(=O)N1CCSc2ccc(S(=O)(=O)NCc3ccc(F)cc3)cc21 was tested. Which Potency did it give?
**A.** inactive

**Q.** With Cn1c(=O)[nH]c(=O)c2c1nc(CN1CCN(c3cccc(Cl)c3)CC1)n2CCCc1ccccc1 as the compound, how does the Potency read?
**A.** inactive

**Q.** With CC(=O)N(C1=C(Cl)C(=O)c2ccccc2C1=O)c1ccc(C(=O)O)cc1 as the compound, how does the Potency read?
**A.** inconclusive: 35.5 µM [inhibitor, single point]

**Q.** Cc1ccc(S(=O)(=O)/N=C2/C=C(Sc3ncn[nH]3)C(=O)c3ccccc32)c(C)c1 was tested. Which Potency did it give?
**A.** inconclusive: 28.2 µM [inhibitor, single point]

**Q.** With CCOC(=O)c1c(C)[nH]c(O)c1C=Nc1ccccc1 as the compound, how does the Potency read?
**A.** inactive

**Q.** Cc1ccc(C(=O)ONc2ccc(N=NC(=O)c3ccccc3O)cc2)cc1 was tested. Which activity change, negative = inhibition did it give?
**A.** inconclusive: -88.2% [inhibitor] [at 0.501 µM]

**Q.** Which Potency does the source give for Cc1ccc(C)n1-c1nc(=S)[nH][nH]1 here?
**A.** active: 17.8 µM

**Q.** Which Potency does the source give for N#CCCN(C(=O)CN1C(=O)NC2(CCCC2)C1=O)c1ccccc1F here?
**A.** inconclusive: 39.8 µM [inhibitor, single point]

**Q.** COc1cccc(/C=C/c2nc(C#N)c(NCC(C)C)o2)c1 was tested. Which Potency did it give?
**A.** inconclusive: 35.5 µM [inhibitor, single point]

**Q.** Which Potency does the source give for CC(=O)c1ccc(N2CCN(C(=O)COc3ccc4c(c3)CCC4)CC2)cc1 here?
**A.** inconclusive: 25.1 µM [inhibitor, partial curve, poor fit]

**Q.** How did the Potency turn out when Cc1ccc(C(=O)NCc2ccccc2)cc1NC(=O)c1nsc2ccccc12 was run?
**A.** inactive

**Q.** CSc1ccc(/C=N/NC(=O)c2ccc(C)c(C)c2)cc1 was tested. Which Potency did it give?
**A.** inconclusive: 28.2 µM [inhibitor, single point]

**Q.** How did the Potency turn out when CS/C(N)=N/N=C/c1ccc([N+](=O)[O-])cc1 was run?
**A.** inconclusive: 39.8 µM [inhibitor, single point]

**Q.** Cc1ccc2cccc(OC(=O)/C=C\c3ccccc3)c2n1 was tested. Which Potency did it give?
**A.** inactive

**Q.** With O=C1N=c2ccc(Br)cc2=C1c1sc(=S)n(NS(=O)(=O)c2ccccc2)c1O as the compound, how does the Potency read?
**A.** inconclusive: 25.1 µM [inhibitor, single point]

**Q.** How did the Potency turn out when Cc1ccc(C)c(C(=O)C(C)OC(=O)CN2C(=O)NC3(CC(C)CC(C)(C)C3)C2=O)c1 (centres undefined) was run?
**A.** inactive

**Q.** O=S(=O)(c1cccc2c(Cl)cccc12)N1CCCNCC1 was tested. Which Potency did it give?
**A.** inconclusive: 6.31 µM [inhibitor, single point]

**Q.** With Cc1cc(=O)oc2c(CN3CCN(CCO)CC3)c(O)ccc12 as the compound, how does the Potency read?
**A.** inconclusive: 28.2 µM [inhibitor, single point]

**Q.** How did the Potency turn out when CCCc1c(OCCCOc2ccc(OCC(=O)O)cc2)ccc(C(C)=O)c1O was run?
**A.** inconclusive: 35.5 µM [inhibitor, single point]

**Q.** COc1ccc2[nH]cc(CCNc3ncnc4ccc(-c5ccccc5C#N)cc34)c2c1 was tested. Which Potency did it give?
**A.** inactive

**Q.** For O=C(Cc1ccccc1)N1CCC2(CC1)NCCc1[nH]cnc12, which Potency is on record?
**A.** inconclusive: 6.31 µM [inhibitor, single point]

**Q.** With CC(C)CN1CCN(Cc2cccc3cccnc23)CC1CCO (centres undefined) as the compound, how does the Potency read?
**A.** inconclusive: 39.8 µM [inhibitor, single point]
